Data from patent publication US12502369B2, “Methods of cancer treatment” (K-GEN, INC., priority 2015, dated 2025).
Some results were stated once for a whole list of compounds, not compound by compound.

Test system: lymphoma cell lines
Test: Proliferation assay, 9 lymphoma cell lines
Format: cell-based
Conditions: certain lymphoma cell lines (e.g., SU-DHL-2, Z138, Mino, and NAMALWA)
Protocol: PKC activators were tested in 9 lymphoma cell lines (Table 10). Proliferation assays were performed as described in Example 1.

SMILES | top inhibition
CC(=O)O[C@@]12C[C@@H](C)[C@]3(O)C4C=C(C)C(=O)[C@@]4(O)CC(CO)=C[C@H]3[C@@H]1C2(C)C (some centres unmarked) [Compound K-101A, Prostratin] | 80-95%
C/C=C(/C)C(=O)O[C@H]1C(C)=C[C@]23C(=O)[C@@H](C=C(CO)[C@@H](O)[C@]12O)[C@H]1[C@@H](C[C@H]3C)C1(C)C [Compound K-102, Ingenol-3-angelate, reference compound] | 80-95%
